The record followed here is paper PMC10163288.

What is called apparent Kd is the concentration giving half-maximal binding under the conditions of the assay.

To fix the notation:
B1: il10ra_site1_sap_18_mot_HHH_b1_00999_000000080_0001_41_55_H_._HHH_b1_01900_0001_0000200017_0000001_0_0001 (protein)
chain: DEEVLEEVEKEAGGDPERILELLLEIAEERGRFDPQQLKAAERFIRAAIELNTPSVELMLRALAA
B2: il10ra_site1_normal_mot_HHH_b1_06816_000000239_0001_1_19_H_._HHH_b1_07754_0001_0000100002_0000001_1 (protein)
chain: SSSSSSDREEEAQELLEELKEIPDPDERFKLAREAIELAVEAGDPELARRISRLAAELSSSSSSS
B3: il10ra_site1_normal_mot_HHH_b1_00999_000000080_0001_41_55_H_._HHH_b2_02899_0001_0000400029_0000001_0 (protein)
chain: SSSSDLEEEVEELLEEAERIEDPREATELLQEATHLALRAQDPELLKLVWEVVQEIGKLLSSSSS
B4: il10ra_site1_normal_mot_2c1a291787c6f40772924d4e9068d803_0001_af2_000000222_0001_34_48_H_._HHH_b1_08635_0001_0000300024_0000002_0_af2pred_dldesign_0_af2pred (protein)
chain: SSSSSSEVEALLKQLAAAASKVSPEKAAKLYDTMVEVHRLLQAGKPEEALALAQAALAEVSSSSS
B5: il10ra_site1_normal_mot_HHH_b1_02997_000000220_0001_39_52_H_._HHH_b1_02223_af2_0001_0000200006_0000002_0 (protein)
chain: SSSSSNEAEEVYELIREALQLLHEGDEEEAKEVLEEARELAEQLGNVNALWNVRYVLRQLSSSSS
B6: il10ra_site1_normal_mot_HHH_b2_04679_000000194_0001_21_38_H_._HHH_b2_02732_0001_0000500047_0000001_0 (protein)
chain: SSSSSDEEVRERVEELLERLEKVDPQEAYELLREAIELASENNDPELQREILRALREWLTSSSSS
B7: il10ra_site1_sap_21_mot_10a13a28c4ba12e342f6adf7edc157b2_0001_1_000000237_0001_51_65_H_._HHH_b2_02475_0001_0000100002_0000001_0_0001 (protein)
chain: SSSSDQERAVELMLKRLKHLVKQRNEEYFRQAVRFIRALIEWLGDPRLEELLEEIEEKFEESSSS
B8: il10ra_site1_normal_mot_HHH_b2_00837_af2_000000287_0001_40_54_H_._HHH_b2_01069_af2_0001_0000200019_0000002_0 (protein)
chain: SSSSDEEERIKKLIEEVEELLEEGDPEEALELLFEATHFALELGNAELLREIWELVRSLKSSSSS
B9: il10ra_site1_normal_mot_b26a303360aa2756ef5b79665ce52f45_0001_000000179_0001_1_11_H_._HHH_b1_01865_0001_0000100011_0000002_1 (protein)
chain: SSSSSSLEEIYKLIREAAELLYEGNPEEAREVAEEAEELAERANNPVFLFSIRHLLRDINSSSSS
B10: il10ra_site1_normal_mot_b26a303360aa2756ef5b79665ce52f45_0001_000000179_0001_1_11_H_._HHH_b1_07761_0001_0000200034_0000001_0 (protein)
chain: SSSSSEESQELYELSRRAAELLYEGNPEEAEELLEEAERLAERNNNFVFLFNIRHLLRDVKSSSS
B11: il10ra_site1_normal_mot_HHH_b2_07440_af2_000000021_0001_1_18_H_._HHH_b1_07357_0001_0000400038_0000002_0 (protein)
chain: SSSSDEILQEILELSLEAFRLALRGNPEEAREVLEEALELAREEGNEQLVRVLEDLLRALSSSSS
B12: il10ra_site1_normal_mot_2c1a291787c6f40772924d4e9068d803_0001_af2_000000187_0001_34_48_H_._HHH_b2_05273_0001_0000600026_0000001_0_af2pred_0001 (protein)
chain: SSSSDKHEVLQLTARAAALADREGDKETVKRLFELLLELYVRGDPELREELEELAEELLGSSSSS
B13: il10ra_site1_sap_16_mot_HHH_b1_06978_af2_000000172_0001_1_16_H_._HHH_b1_07175_af2_0001_0000600013_0000001_0_0001 (protein)
chain: SSSSDRYEEVKRVIERAIELLREGNPEEAERLLEELAEKLEELGDWSALHAVEHLARVVGSSSSS
B14: il10ra_site1_normal_mot_HHH_b1_06789_af2_000000041_0001_1_20_H_._HHH_b2_04736_0001_0000300026_0000001_0_af2pred_0001 (protein)
chain: SSSSTAAEADVRIAFRAAKRAIEQGDEELAQKLLKLMERSARLANDPELEELAEEIERLLKSSSS
B15: il10ra_site1_sap_19_mot_HHH_b2_06480_af2_000000075_0001_1_18_H_._HHH_b2_06039_0001_0000200014_0000002_0_0001 (protein)
chain: SSSSDEEEEELYRLIARLARLLIRGDEEKVRELLEELRRLAEELNDEAAEKAVEIIEQALSSSSS
B16: il10ra_site1_normal_mot_HHH_b1_05083_af2_000000148_0001_42_57_H_._HHH_b2_07916_af2_0001_0000200027_0000001_0_af2pred_0001 (protein)
chain: SSSSSEEQEELIELLRRLAELVREGDEEEVQKLAEEAERLAKELNNELIEVQLEFILKTLRSSSS
B17: il10ra_site1_normal_mot_6bb093d23f5042b6c551c363657da53b_0001_1_000000153_0001_51_65_H_._HHH_b2_00812_af2_0001_0000900073_0000001_0 (protein)
chain: SSSSSEEEAEKLFEEAEEALKRGDLEEAIELLQKLSRLVVKLGDEELTRLVFELAKLIRELSSSS
B18: il10ra_site1_normal_mot_HHH_b1_06994_000000193_0001_40_55_H_._HHH_b1_03771_af2_0001_0000300015_0000001_0 (protein)
chain: SSSSDQEEELLRAAVRLIEQALENGDPRAARFLIISAKILAKELGDEETLEELEKLEEEVDSSSS
B19: il10ra_site1_sap_11_mot_HHH_b2_01447_af2_000000258_0001_1_20_H_._HHH_b1_02883_0002_0000100003_0000001_0_0001 (protein)
chain: SSSSDELDQEALRLSLEAFRLALRGNPEEARKVVEEAEELAERANDERLLKILETLLRALSSSSS
B20: il10ra_site1_sap_20_mot_HHH_b2_05540_000000178_0001_1_18_H_._HHH_b1_07555_0001_0000200022_0000001_0_0001_af2pred_0001 (protein)
chain: SSSSDAKEWIVRLALATARILAERGDEEAARRALEIAERSAKELGDPELEREVEELLEELRSSSS
B21: il10ra_site1_normal_mot_HHH_b2_00093_af2_000000025_0001_40_54_H_._HHH_b2_06470_0001_0000500025_0000002_0_af2pred_0001 (protein)
chain: SSSSDKEEELEELLEEVEEAVRRGDEQEAMRLLLEAAKLAKEAEDEEVLERLAELLRLLFSSSSS
B22: il10ra_site1_normal_mot_HHH_b2_02116_af2_000000165_0001_41_55_H_._HHH_b1_00232_0002_0000100001_0000002_0_af2pred_dldesign_0_af2pred (protein)
chain: SSSSSDKAARAARLVACCRQALATAPPELRRAAAETYAEELEHLGFPEEAAAVRRELELLSSSSS
B23: il10ra_site1_sap_20_mot_HHH_b1_06242_af2_000000274_0001_1_18_H_._3cc294eed14fd476e22f76c2ebdda8df_0001_0001_0000300015_0000001_0_0001 (protein)
chain: SSSSDEKAHRIYELLRRVAELHDEGNPEEAREVLEEAKELAEEVNSRLFKWIVEFLEKQLSSSSS
B24: il10ra_site1_normal_mot_HHH_b2_00984_000000042_0001_1_20_H_._HHH_b2_06733_0001_0000500035_0000001_0 (protein)
chain: SSSSSDLEERVEELLEEAEELSKRDPQKALQVLLEAVRIALEISNAELLQELWELIKKIASSSSS

This is one part of the list.

The assay has as its target il10ra, Q13651. Description: yeast display titration.
For the molecule B1, the “apparent Kd” value was “inactive: no binding seen”. As for B2, the “apparent Kd” value is “inactive: no binding seen”. The value for B3 was “inactive: no binding seen”. As for B4, the “apparent Kd” value is “inactive: no binding seen”. In the case of B5, the “apparent Kd” value was “inactive: no binding seen”. As to B6, the “apparent Kd” value was “inactive: no binding seen”.

As for B7, the “apparent Kd” value was “inactive: no binding seen”. In the case of B8, the “apparent Kd” value was “inactive: no binding seen”. As for B9, the entry is “inactive: no binding seen”; as for B10, “inactive: no binding seen”; as for B11, “inactive: no binding seen”. As for B12, the figure is inactive: > 0.0934 µM; as for B13, “inactive: no binding seen”. As for B14, the entry is “inactive: no binding seen”; as for B15, “inactive: no binding seen”.

Regarding B16, the “apparent Kd” value is “inactive: no binding seen”. The value for B17 was “inactive: no binding seen”; that for B18 was “inactive: no binding seen”. B19: the “apparent Kd” value was “inactive: no binding seen”.

As for B20, the “apparent Kd” value was “inactive: no binding seen”. As for B21, the entry is “inactive: no binding seen”. As for B22, the “apparent Kd” value was “inactive: no binding seen”. B23: the “apparent Kd” value was “inactive: no binding seen”.

Consider B24, for which the “apparent Kd” value is “inactive: no binding seen”.
